From PMC6547695
Numbering of substitutions follows the chain as printed. Names may count otherwise. No constants are given. Whether binding was seen depends on the method and setting. Binding seen in cells or lysates may run through a third protein. Some binding calls cover weakened binding; strength is not graded here.

By UniProt entry, the sequences of proteins in these tests, tags left out. Residues count along the entry.
UniProt P29317, residues 24-976: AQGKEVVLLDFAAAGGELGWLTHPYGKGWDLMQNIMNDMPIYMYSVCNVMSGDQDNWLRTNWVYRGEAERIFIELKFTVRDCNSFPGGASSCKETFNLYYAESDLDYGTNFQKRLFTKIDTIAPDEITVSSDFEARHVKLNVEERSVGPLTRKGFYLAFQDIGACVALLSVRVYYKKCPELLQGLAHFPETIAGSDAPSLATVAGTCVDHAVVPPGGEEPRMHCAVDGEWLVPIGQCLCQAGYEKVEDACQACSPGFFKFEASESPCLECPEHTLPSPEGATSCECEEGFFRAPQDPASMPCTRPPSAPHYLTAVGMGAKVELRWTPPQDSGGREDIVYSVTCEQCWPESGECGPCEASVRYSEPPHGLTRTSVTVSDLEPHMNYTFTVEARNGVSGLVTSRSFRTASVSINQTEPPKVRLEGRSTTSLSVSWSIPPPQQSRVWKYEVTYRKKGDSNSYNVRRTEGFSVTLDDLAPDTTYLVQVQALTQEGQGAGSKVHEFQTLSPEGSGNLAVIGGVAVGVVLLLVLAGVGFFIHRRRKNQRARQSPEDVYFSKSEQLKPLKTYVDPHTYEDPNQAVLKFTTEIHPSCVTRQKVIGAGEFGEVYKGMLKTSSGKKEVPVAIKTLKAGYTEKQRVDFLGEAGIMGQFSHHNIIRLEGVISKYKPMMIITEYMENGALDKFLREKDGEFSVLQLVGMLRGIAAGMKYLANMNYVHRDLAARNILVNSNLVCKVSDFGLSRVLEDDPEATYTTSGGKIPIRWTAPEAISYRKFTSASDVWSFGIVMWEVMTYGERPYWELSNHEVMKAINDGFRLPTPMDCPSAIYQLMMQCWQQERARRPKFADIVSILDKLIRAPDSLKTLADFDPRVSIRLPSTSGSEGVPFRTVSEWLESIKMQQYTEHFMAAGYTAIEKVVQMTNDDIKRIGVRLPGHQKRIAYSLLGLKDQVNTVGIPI

B1: ephrin type-B receptor 6 (EPHB6), wild type (receptor, UniProt O15197 32-1021)
chain: LEEVLLDTTGETSEIGWLTYPPGGWDEVSVLDDQRRLTRTFEACHVAGAPPGTGQDNWLQTHFVERRGAQRAHIRLHFSVRACSSLGVSGGTCRETFTLYYRQAEEPDSPDSVSSWHLKRWTKVDTIAADESFPSSSSSSSSSSSAAWAVGPHGAGQRAGLQLNVKERSFGPLTQRGFYVAFQDTGACLALVAVRLFSYTCPAVLRSFASFPETQASGAGGASLVAAVGTCVAHAEPEEDGVGGQAGGSPPRLHCNGEGKWMVAVGGCRCQPGYQPARGDKACQACPRGLYKSSAGNAPCSPCPARSHAPNPAAPVCPCLEGFYRASSDPPEAPCTGPPSAPQELWFEVQGSALMLHWRLPRELGGRGDLLFNVVCKECEGRQEPASGGGGTCHRCRDEVHFDPRQRGLTESRVLVGGLRAHVPYILEVQAVNGVSELSPDPPQAAAINVSTSHEVPSAVPVVHQVSRASNSITVSWPQPDQTNGNILDYQLRYYDQAEDESHSFTLTSETNTATVTQLSPGHIYGFQVRARTAAGHGPYGGKVYFQTLPQGELSSQLPERLSLVIGSILGALAFLLLAAITVLAVVFQRKRRGTGYTEQLQQYSSPGLGVKYYIDPSTYEDPCQAIRELAREVDPAYIKIEEVIGTGSFGEVRQGRLQPRGRREQTVAIQALWAGGAESLQMTFLGRAAVLGQFQHPNILRLEGVVTKSRPLMVLTEFMELGPLDSFLRQREGQFSSLQLVAMQRGVAAAMQYLSSFAFVHRSLSAHSVLVNSHLVCKVARLGHSPQGPSCLLRWAAPEVIAHGKHTTSSDVWSFGILMWEVMSYGERPYWDMSEQEVLNAIEQEFRLPPPPGCPPGLHLLMLDTWQKDRARRPHFDQLVAAFDKMIRKPDTLQAGGDPGERPSQALLTPVALDFPCLDSPQAWLSAIGLECYQDNFSKFGLCTFSDVAQLSLEDLPALGITLAGHQKKLLHHIQLLQQHLRQQGSVEV
B2: ephrin type-B receptor 6 (EPHB6) Q926R mutant (receptor, UniProt O15197 32-1021)
chain: B1 chain with Q895R

Target: ephrin type-A receptor 2 (EPHA2) (human (endogenous in A549)) (UniProt P29317)
Test: co-IP; cell lysates immunoprecipitated with anti-EPHB6 or anti-EPHA2 antibodies, western blot of the precipitate (Fig. 2c); for c-Cbl the cells were treated with MG132 (10 µM) for 3 h and lysates precipitated with anti-EPHB6 antibody (Fig. 2d)

Row | Binder | binding
1 | B1 | binds
2 | B2 | binds
